Hit rate of the full screen: of about 330,000 compounds, about 7,700 (2.3%) were called active. This list was built around the results that the source calls inconclusive (neither active nor inactive); the mix of calls is not that of the screen. Calls follow the shape of the dose curve; as a rule, active = well fitted inhibition curve with a large enough effect; inconclusive = small, poorly fitted or top-dose-only effect, or effect the other way; inactive = flat fitted curve, though single readings scatter. A potency beside an inconclusive call is a rough fit, not a confirmed value.
Test: qHTS screen for small molecules that inhibit ELG1-dependent DNA repair in human embryonic kidney (HEK293T) cells expressing luciferase-tagged ELG1; also: nearly all actives have a fitted effect of over 55% in size
Details: HEK293T ELG1-luciferase reporter, luminescence, 16 h, DNA damage induced by 5-fluorouridine; activity change, negative = inhibition: at 46.1 µM (top of the series)
How it was run: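 Overnight (16 hr) co-exposure of 2,000 cells/well to 5-fluorouridine and compound at 37 °C preceded detection. Luciferase was quantified via ONE-Glo luminescence; loss of signal denotes inhibition.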
For `c1ccc(N(c2ccccc2)c2nc(N3CCOCC3)nc(N3CCOCC3)n2)cc1`, the Potency was inconclusive: 7.31 µM [inhibitor, single point]. In the case of `COc1cc(C(=O)Nc2cccc3ncccc23)cc(OC)c1OC`, the Potency is reported as inconclusive: 29.1 µM [activator, single point]. For `CC(=O)Nc1ccc(C(=O)COC(=O)c2ccco2)c(F)c1`, the Potency was inconclusive: 31.6 µM [activator, single point]. For `O=C(Nc1nc2c(ccc3ccccc32)s1)c1cc([N+](=O)[O-])ccc1N1CCOCC1`, the Potency was inconclusive: 18.3 µM [activator, partial curve]. In the case of `O=C(CC1CCCCC1)NC1CCCC1`, the Potency is reported as inconclusive: 8.2 µM [activator, single point]. In the case of `Cc1ccc(N2CCN(/N=C/c3ccncc3)CC2)cc1`, the Potency is reported as active: 18.3 µM. With `Cc1cc(C)nc(SCC(=O)Nc2ccc(S(=O)(=O)NC(C)(C)C)cc2)n1` the Potency was inconclusive: 20.6 µM [inhibitor, partial curve]. In the case of `COc1cc(OC)cc(C(=O)N[C@H](C(=O)Nc2ccc3c(c2)OCO3)C(C)C)c1`, the Potency is reported as inconclusive: 18.3 µM [inhibitor, partial curve, poor fit]. With `S=C(NCc1ccco1)Nc1ccccc1` the “activity change, negative = inhibition” value was inactive: -4.29%. For `Cc1nnc(NC(=O)CSc2ccc3nnc(-c4ccccn4)n3n2)s1`, the “activity change, negative = inhibition” value was inactive: -5.46%. In the case of `COC(=O)CSc1cc([N+](=O)[O-])cc2c1c(C1OCCO1)nn2-c1ccccc1`, the “activity change, negative = inhibition” value is reported as inactive: 15.1%. In the case of `CC1CCCC(NC(=O)c2cccc(S(=O)(=O)N3CCCCC3)c2)C1C` (centres undefined), the “activity change, negative = inhibition” value is reported as inactive: -5.59%. With `COc1ccc([C@H]2CC(=O)C=C(C#CC(C)(C)C)C2)cc1` the Potency was inconclusive: 18.3 µM [activator, partial curve, poor fit]. With `O=[N+]([O-])c1ccc(/C=N/Nc2nc(NCc3ccccc3)nc(N3CCOCC3)n2)cc1` the Potency was active: 7.3 µM. In the case of `CC(C)CCOCc1nc2sc3c(c2c(=O)[nH]1)CCC(C)C3` (centres undefined), the Potency is reported as inconclusive: 20.6 µM [activator, partial curve]. With `C[C@@H]1CC[C@]2(O[C@@H](CCO)C[C@@H](O)[C@@H]2O)O1` the Potency was inconclusive: 23.1 µM [activator, partial curve, poor fit]. For `Nc1nc(SCC(=O)N2CCCCC2)[nH]c(=O)c1NC(=O)c1cccs1`, the Potency was inconclusive: 20.6 µM [activator, single point]. With `CCOC(=O)C1=C(C)N=C(/N=C/N(C)C)SC1c1ccccc1` (centres undefined) the Potency was inconclusive: 10 µM [inhibitor, partial curve, poor fit]. With `Cc1cnc(NC(=O)CSc2nnc(-c3ccccc3)o2)s1` the Potency was inconclusive: 5.8 µM [activator, partial curve]. With `C=CCN(c1ccc(C(=O)N2CCN(c3ccc(F)cc3)CC2)cc1)S(C)(=O)=O` the Potency was inconclusive: 29.1 µM [inhibitor, single point]. In the case of `COc1cc(C(=O)OCC(=O)NC(C)CCc2ccccc2)cc(OC)c1OC` (centres undefined), the Potency is reported as inconclusive: 32.6 µM [inhibitor, single point]. In the case of `CCc1ccc(C(=O)NC(CCSC)C(=O)OC)cc1` (centres undefined), the “activity change, negative = inhibition” value is reported as inactive: 8.3%. In the case of `O=C(c1ccccc1)c1ccc(N2CCOCC2)c(NC(=O)c2ccco2)c1`, the Potency is reported as active: 16.4 µM. In the case of `COCCn1c(C)cc(C2=NNC(=Nc3ccccc3)SC2)c1C`, the Potency is reported as inconclusive: 1.64 µM [activator, full curve]. For `O=S1(=O)N=C(N(CCO)/N=C/c2ccccc2)c2ccccc21`, the Potency was inconclusive: 16.4 µM [inhibitor, single point]. In the case of `c1ccc2c(NC3C4CC5CC(C4)CC3C5)nc(N3CCOCC3)nc2c1` (centres undefined), the Potency is reported as inconclusive: 29.1 µM [inhibitor, single point]. For `CC(=O)c1ccc(NC(=O)C2CCN(S(=O)(=O)c3cccc4cccnc34)CC2)cc1`, the “activity change, negative = inhibition” value was inactive: 8.92%. For `CCOc1ccc(-c2nnc(SCC(=O)N3CCNC3=O)o2)cc1`, the Potency was inconclusive: 12.6 µM [activator, partial curve]. In the case of `Cc1ccc(-c2ccc(/C=C(\C#N)C(N)=S)n2C)cc1`, the Potency is reported as inconclusive: 9.2 µM [activator, partial curve]. For `COc1ccc(C(=O)Nc2nc(-c3cccs3)c(NC(C)=O)s2)cc1`, the Potency was inconclusive: 18.4 µM [activator, single point]. With `O=C(Cn1sc2ccccc2c1=O)NC12CC3CC(CC(C3)C1)C2` the Potency was inconclusive: 29.1 µM [activator, single point]. With `O=C(Nc1cccc(NC(=S)NC(=O)c2cccs2)c1)c1ccccc1` the “activity change, negative = inhibition” value was inactive: 29.8%. In the case of `O=C1N/C(=N\S(=O)(=O)c2ccccc2)S/C1=C\c1cc([N+](=O)[O-])ccc1O`, the “activity change, negative = inhibition” value is reported as inactive: 1.95%. For `CC(C)(C)Nc1ncnc2c1cnn2-c1ccccc1`, the Potency was inconclusive: 0.82 µM [activator, full curve]. In the case of `N#Cc1ccccc1OCCN1C(=O)c2ccccc2C1=O`, the Potency is reported as inconclusive: 13 µM [activator, partial curve, poor fit]. In the case of `Cc1ncsc1C(=O)Nc1nc2c(s1)CCCC2`, the Potency is reported as inconclusive: 1.84 µM [activator, partial curve]. In the case of `COc1ccc(Br)cc1CN(C)CC(=O)Nc1cc(Cl)cc(Cl)c1`, the Potency is reported as inconclusive: 18.4 µM [inhibitor, single point]. With `O=C(CN1C(=O)NC2(CCCCCCC2)C1=O)Nc1c(Cl)cccc1Cl` the “activity change, negative = inhibition” value was inactive: 7.63%. For `CCOC(=O)C1CCCN(C(=O)CSCc2ccccc2)C1` (centres undefined), the Potency was inconclusive: 16.4 µM [activator, partial curve]. With `COc1cc(NC(=O)Cn2nc(C(F)(F)F)c(Br)c2C)cc([N+](=O)[O-])c1` the Potency was active: 18.4 µM. In the case of `CC(C)(C)c1ccc(S(=O)(=O)N2CCN(CC(=O)NC(=O)NC3CCCCC3)CC2)cc1`, the Potency is reported as inconclusive: 9.2 µM [inhibitor, partial curve, poor fit]. With `COc1ccc(NC(=S)c2ccc3ccccc3n2)cc1` the Potency was inconclusive: 16.4 µM [activator, partial curve]. In the case of `Cc1cc(/C=C\c2ccccc2)nc2ccccc12`, the Potency is reported as inconclusive: 20.6 µM [activator, partial curve]. For `Cc1ccc(-c2nn(-c3ccccc3)cc2C=O)o1`, the Potency was inconclusive: 7.3 µM [activator, partial curve]. In the case of `O=C(NCCCn1ccnc1)c1cccc(S(=O)(=O)NCc2ccccc2)c1`, the Potency is reported as inconclusive: 29.1 µM [inhibitor, single point]. In the case of `COc1ccc2[nH]c(=O)c(CN(C(=O)c3cccnc3)c3ccccc3C)cc2c1`, the Potency is reported as inconclusive: 25.9 µM [activator, partial curve, poor fit]. For `[O-]/[N+](=C\c1ccco1)c1ccc(Cl)cc1`, the Potency was inconclusive: 23.1 µM [activator, single point]. With `COc1ccc(CCNc2oc(COc3ccccc3Cl)nc2C#N)cc1OC` the Potency was active: 23.1 µM. For `Cc1cc(Cl)c(S(=O)(=O)N2CC(C)OC(C)C2)cc1OCC(N)=O` (centres undefined), the Potency was inconclusive: 6.51 µM [activator, single point]. With `CCc1nc(N(CC)CC)c2oc3ccccc3c2n1` the Potency was inconclusive: 18.4 µM [inhibitor, partial curve, poor fit]. In the case of `COC(=O)c1ccc(C2=NOC(C)(c3nnc(Cc4ccccc4)o3)C2)cc1` (centres undefined), the Potency is reported as inconclusive: 28.2 µM [inhibitor, single point]. In the case of `Nc1c(S(=O)(=O)c2ccccc2)nnn1-c1ccccc1`, the “activity change, negative = inhibition” value is reported as inactive: 0.53%. In the case of `CCN(C(=O)c1cc2cccc(OC)c2oc1=O)c1ccccc1`, the “activity change, negative = inhibition” value is reported as inactive: 0.198%. With `NNC(=S)Nc1cc(S(=O)(=O)N2CCOCC2)ccc1N1CCOCC1` the Potency was inconclusive: 29.1 µM [inhibitor, single point]. With `COc1cc(C(=O)NCC(=O)NCCSc2ccc(Br)cc2)cc(OC)c1OC` the Potency was inconclusive: 10.3 µM [inhibitor, partial curve, poor fit]. With `Cc1oc2c(C)c3oc(=O)c(CCC(=O)N4C[C@H]5C[C@@H](C4)c4cccc(=O)n4C5)c(C)c3cc2c1C` the Potency was inconclusive: 23.1 µM [inhibitor, single point]. In the case of `COc1cc(C(=O)Nc2cc(-c3cn4cccnc4n3)ccc2C)cc(OC)c1OC`, the Potency is reported as inconclusive: 6.51 µM [inhibitor, partial curve]. With `O=Cc1ccc(-c2cccc([N+](=O)[O-])c2)o1` the “activity change, negative = inhibition” value was inactive: 11.9%. For `Cc1cc(/C(O)=C2\C(=O)C(=O)N(CCN(C)C)C2c2ccncc2)ccc1OCc1ccccc1` (centres undefined), the “activity change, negative = inhibition” value was inactive: 13.8%. In the case of `Cc1ccc(OC(=O)c2oc3ccc(F)cc3c2C)c(C)c1`, the Potency is reported as inconclusive: 14.1 µM [activator, partial curve, poor fit]. In the case of `Cn1c(=O)cc(OCC(=O)NC2CCCCC2)c2ccccc21`, the Potency is reported as inconclusive: 29.1 µM [activator, single point]. In the case of `COCCn1c(-c2cccs2)csc1=Nc1cccnc1`, the Potency is reported as inconclusive: 18.3 µM [inhibitor, single point]. With `O=C(ONC1=NCCCCC1)c1cccc([N+](=O)[O-])c1` the “activity change, negative = inhibition” value was inactive: 9.08%. In the case of `Cc1cc(C)c(C)c(S(=O)(=O)N2CCC(C(=O)N3CC(C)CC(C)C3)CC2)c1C` (centres undefined), the Potency is reported as inconclusive: 29.1 µM [inhibitor, single point]. For `CC(=O)c1c(C)[nH]c(C(=O)COC(=O)c2cccnc2Cl)c1C`, the Potency was inconclusive: 23.1 µM [activator, partial curve]. With `O=C(CNC(=O)c1ccc2c(c1)OCCO2)N/N=C/c1ccco1` the Potency was inconclusive: 29.1 µM [activator, single point]. In the case of `CC(=O)Nc1cccc(NC(=O)c2cc3ccccc3o2)c1`, the Potency is reported as inconclusive: 4.11 µM [activator, full curve]. In the case of `CC(Nc1ccccc1)C(=O)Nc1ccc(F)cc1` (centres undefined), the “activity change, negative = inhibition” value is reported as inactive: 13.6%. With `Cc1cccc(/C(N)=N/OC(=O)c2cccs2)c1` the Potency was inconclusive: 16.4 µM [activator, partial curve].
% is scaled to controls: 0 for no effect and ±100 for the full control effect; potency is read from the fitted curve at half-maximal effect.
